Patent US10442791B2, “DNA-PK inhibitors” (Vertex Pharmaceuticals Incorporated, priority 2012, dated 2019)
Some entries share one result that the patent states for a list of compounds.

The chains behind the UniProt entries cited, without tags or fusion partners.
UniProt P78527, whole entry: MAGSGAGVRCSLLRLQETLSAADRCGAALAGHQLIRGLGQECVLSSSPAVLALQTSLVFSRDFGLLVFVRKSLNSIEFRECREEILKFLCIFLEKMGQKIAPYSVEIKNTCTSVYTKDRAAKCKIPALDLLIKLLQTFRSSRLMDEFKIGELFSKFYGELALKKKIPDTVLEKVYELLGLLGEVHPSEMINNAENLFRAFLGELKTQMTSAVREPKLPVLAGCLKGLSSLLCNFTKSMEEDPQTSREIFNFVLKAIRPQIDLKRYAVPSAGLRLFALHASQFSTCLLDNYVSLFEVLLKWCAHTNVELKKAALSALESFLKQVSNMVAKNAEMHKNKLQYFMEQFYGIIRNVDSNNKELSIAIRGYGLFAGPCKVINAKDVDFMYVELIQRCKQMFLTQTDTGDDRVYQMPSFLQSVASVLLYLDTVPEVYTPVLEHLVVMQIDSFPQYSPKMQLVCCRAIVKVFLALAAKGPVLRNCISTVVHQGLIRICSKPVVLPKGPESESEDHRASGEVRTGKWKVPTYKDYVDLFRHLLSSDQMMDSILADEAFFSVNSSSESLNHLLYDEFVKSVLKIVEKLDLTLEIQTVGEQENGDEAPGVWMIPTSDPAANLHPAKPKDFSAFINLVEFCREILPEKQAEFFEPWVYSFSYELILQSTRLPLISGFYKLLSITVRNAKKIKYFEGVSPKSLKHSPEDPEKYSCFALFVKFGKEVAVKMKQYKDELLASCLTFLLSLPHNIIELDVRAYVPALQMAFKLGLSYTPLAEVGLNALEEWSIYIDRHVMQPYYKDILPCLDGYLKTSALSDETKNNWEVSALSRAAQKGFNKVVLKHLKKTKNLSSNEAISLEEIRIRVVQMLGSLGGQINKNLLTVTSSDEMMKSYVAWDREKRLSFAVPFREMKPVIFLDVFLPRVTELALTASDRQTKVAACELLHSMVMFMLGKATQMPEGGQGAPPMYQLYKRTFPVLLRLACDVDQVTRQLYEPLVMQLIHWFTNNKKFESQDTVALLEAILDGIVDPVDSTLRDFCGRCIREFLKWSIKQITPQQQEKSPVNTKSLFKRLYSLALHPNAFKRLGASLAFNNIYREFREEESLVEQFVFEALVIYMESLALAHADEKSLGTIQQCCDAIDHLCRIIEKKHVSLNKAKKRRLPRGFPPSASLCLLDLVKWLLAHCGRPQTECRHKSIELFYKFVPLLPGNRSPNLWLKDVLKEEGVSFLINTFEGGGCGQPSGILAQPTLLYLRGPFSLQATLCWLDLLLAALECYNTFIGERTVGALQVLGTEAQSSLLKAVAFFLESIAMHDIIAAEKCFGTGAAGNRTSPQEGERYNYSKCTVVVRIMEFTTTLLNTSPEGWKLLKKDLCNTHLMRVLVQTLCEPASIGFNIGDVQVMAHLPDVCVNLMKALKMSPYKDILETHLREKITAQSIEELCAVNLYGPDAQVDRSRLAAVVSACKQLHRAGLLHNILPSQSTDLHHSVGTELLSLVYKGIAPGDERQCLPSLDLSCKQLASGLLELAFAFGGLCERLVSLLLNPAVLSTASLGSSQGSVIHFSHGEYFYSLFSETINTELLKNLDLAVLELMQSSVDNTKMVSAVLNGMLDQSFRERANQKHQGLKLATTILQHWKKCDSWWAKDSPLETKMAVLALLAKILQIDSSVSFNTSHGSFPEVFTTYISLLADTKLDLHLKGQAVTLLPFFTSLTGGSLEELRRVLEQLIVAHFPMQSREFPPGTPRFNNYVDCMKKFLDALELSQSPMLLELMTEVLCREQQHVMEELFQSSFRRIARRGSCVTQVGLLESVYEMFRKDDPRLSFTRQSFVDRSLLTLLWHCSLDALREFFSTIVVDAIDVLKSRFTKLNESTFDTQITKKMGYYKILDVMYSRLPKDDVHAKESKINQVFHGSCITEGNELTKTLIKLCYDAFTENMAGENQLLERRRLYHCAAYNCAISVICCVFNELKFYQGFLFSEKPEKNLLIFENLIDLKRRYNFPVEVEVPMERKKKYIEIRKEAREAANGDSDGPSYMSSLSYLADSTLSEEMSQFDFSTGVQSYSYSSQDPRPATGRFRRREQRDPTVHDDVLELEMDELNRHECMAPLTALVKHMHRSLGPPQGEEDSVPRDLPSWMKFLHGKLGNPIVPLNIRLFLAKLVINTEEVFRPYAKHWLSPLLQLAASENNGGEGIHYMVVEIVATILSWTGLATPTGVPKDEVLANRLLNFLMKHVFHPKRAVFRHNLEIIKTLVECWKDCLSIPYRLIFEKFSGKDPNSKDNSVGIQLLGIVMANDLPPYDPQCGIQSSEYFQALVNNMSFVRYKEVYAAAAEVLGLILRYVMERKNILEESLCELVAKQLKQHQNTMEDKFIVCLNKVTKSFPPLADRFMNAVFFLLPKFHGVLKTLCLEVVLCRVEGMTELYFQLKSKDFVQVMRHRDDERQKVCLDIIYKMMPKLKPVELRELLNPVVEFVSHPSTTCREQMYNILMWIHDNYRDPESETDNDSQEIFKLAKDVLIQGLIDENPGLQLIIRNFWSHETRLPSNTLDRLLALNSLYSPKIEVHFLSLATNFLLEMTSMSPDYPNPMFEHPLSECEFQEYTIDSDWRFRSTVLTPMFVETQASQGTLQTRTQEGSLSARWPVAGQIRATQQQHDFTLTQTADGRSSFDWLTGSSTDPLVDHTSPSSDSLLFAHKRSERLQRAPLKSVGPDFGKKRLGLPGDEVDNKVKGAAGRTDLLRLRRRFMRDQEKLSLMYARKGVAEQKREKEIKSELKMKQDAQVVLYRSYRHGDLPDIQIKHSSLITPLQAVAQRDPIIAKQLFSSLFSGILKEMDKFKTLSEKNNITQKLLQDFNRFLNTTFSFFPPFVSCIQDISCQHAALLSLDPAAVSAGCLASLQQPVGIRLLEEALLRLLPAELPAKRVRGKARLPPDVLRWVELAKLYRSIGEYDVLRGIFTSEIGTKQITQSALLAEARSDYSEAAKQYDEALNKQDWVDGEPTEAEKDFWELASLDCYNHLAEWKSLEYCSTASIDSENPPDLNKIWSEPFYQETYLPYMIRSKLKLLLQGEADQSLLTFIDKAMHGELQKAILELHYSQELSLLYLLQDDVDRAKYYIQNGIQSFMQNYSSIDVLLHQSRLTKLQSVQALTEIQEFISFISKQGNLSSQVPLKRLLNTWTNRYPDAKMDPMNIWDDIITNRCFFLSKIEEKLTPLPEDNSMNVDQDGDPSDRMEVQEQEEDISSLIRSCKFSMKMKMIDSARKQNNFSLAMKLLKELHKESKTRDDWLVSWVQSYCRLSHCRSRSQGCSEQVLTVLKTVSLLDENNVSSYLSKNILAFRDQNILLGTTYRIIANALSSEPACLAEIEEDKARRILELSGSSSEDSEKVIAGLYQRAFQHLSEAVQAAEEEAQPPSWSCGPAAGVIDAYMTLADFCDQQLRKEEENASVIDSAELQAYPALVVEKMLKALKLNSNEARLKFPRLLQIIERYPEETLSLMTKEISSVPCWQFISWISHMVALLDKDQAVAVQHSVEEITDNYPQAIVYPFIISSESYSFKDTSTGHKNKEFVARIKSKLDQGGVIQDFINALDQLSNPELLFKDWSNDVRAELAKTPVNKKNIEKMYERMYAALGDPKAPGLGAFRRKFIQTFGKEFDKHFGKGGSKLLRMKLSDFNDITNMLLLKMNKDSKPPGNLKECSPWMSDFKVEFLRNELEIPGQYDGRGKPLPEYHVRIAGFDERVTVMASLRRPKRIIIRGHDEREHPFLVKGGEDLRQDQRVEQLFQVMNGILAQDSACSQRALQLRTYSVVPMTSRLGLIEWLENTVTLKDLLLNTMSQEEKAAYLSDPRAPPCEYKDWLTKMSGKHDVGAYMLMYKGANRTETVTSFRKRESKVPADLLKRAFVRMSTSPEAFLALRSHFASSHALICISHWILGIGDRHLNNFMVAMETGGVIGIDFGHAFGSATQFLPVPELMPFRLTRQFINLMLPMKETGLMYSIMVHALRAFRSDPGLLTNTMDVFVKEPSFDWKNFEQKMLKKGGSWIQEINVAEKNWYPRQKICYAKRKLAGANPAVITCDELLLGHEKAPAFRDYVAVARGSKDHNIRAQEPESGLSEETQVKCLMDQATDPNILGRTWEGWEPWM

These compounds were tested against DNA-PK (Homo sapiens, UniProt P78527) (assay: DNA-PK inhibition assay (radiometric 33P-ATP kinase assay)). Conditions: 100 μM ATP; competitive tight-binding fit.
Type: biochemical
Protocol: Compounds were screened for their ability to inhibit DNA-PK kinase using a standard radiometric assay. Briefly, in this kinase assay the transfer of the terminal ^33P-phosphate in ^33P-ATP to a peptide substrate is interrogated. The assay was carried out in 384-well plates to a final volume of 50 μL per well containing approximately 6 nM DNA-PK, 50 mM HEPES (pH 7.5), 10 mM MgCl2, 25 mM NaCl, 0.01% BSA, 1 mM DTT, 10 μg/mL sheared double-stranded DNA (obtained from Sigma), 0.8 mg/mL DNA-PK peptide ([…] obtained from American Peptide), and 100 μM ATP. Accordingly, compounds of the invention were dissolved in DMSO to make 10 mM initial stock solutions. Serial dilutions in DMSO were then made to obtain the final solutions for the assay. A 0.75 μL aliquot of DMSO or inhibitor in DMSO was added to each well, followed by the addition of ATP substrate solution containing ^33P-ATP (obtained from Perkin Elmer). The reaction was started by the addition of DNA-PK, peptide and ds-DNA. After 45 min. the reaction was quenched with 25 μL of 5% phosphoric acid. The reaction mixture was transferred to MultiScreen HTS 384-well PH plates (obtained from Millipore), allowed to bind for one hour, and washed three times with 1% phosphoric acid. Following the addition of 50 μL of Ultima Gold™ high efficiency scintillant (obtained from Perkin Elmer), the samples were counted in a Packard TopCount NXT Microplate Scintillation and Luminescence Counter (Packard BioScience). The Ki values were calculated using Microsoft Excel Solver macros to fit the data to the kinetic model for competitive tight-binding inhibition.

SMILES	Ki [nM]
Cc1ccc(-c2cc(NC[C@@H](C)c3ccccc3O)ncn2)cn1 [Compound 109]	≤ 300
Cc1ncc(-c2cc(NC[C@@H](C)c3cccc4scnc34)ncn2)cn1 [Compound 658]	≤ 300
CC(CNc1cc(-c2ccc(N3CCN(C)CC3)nc2)ncn1)c1cnccc1OC1CC1 (centres unmarked) [Compound 177]	≤ 300
CCOc1cc(-c2cc(NC[C@@H](C)c3ccnc4c3OCCO4)ncn2)cnc1C [Compound 521]	≤ 300
CNC(=O)c1ccc([C@H](C)CNc2cc(-c3cn(C4COC4)c4ncc(F)cc34)ncn2)c(OC)c1 [Compound 470]	≤ 300
CNC(=O)CNc1ncc(-c2cc(NC[C@@H](C)c3cccc4c(C(=O)NC)ccnc34)ncn2)cn1 [Compound 1074]	≤ 300
CNC(=O)c1ccnc2c([C@H](C)CNc3cc(-c4ccc(OC)nc4)ncn3)cccc12 [Compound 615]	≤ 300
CNC(=O)c1ccnc2c([C@H](C)CNc3cc(-c4cnc(OC)c(CO)c4)ncn3)ccc(F)c12 [Compound 883]	≤ 300
C=C(CNc1cc(-c2ccc(C)nc2)ncn1)c1cccc2c(C(=O)NC)ccnc12 [Compound 467]	≤ 300
COc1cc(SC)ccc1CCNc1cc(-c2ccc(C)nc2)ncn1 [Compound 70]	≤ 300
CNC(=O)c1c(F)cnc2c([C@H](C)CNc3cc(-c4ccc(C(C)(C)O)nc4)ncn3)cccc12 [Compound 866]	≤ 300
COc1cc(CO)ccc1C(C)CNc1cc(-c2ccc(C)nc2)ncn1 (centres unmarked) [Compound 112]	≤ 300
[2H]c1nc(NC[C@@H](C)c2cccc3c(C(=O)NC)ccnc23)cc(-c2ccc(C)nc2)n1 [Compound 604]	≤ 300
COc1cc(C(=O)Nc2ccccc2)ccc1C(C)CNc1cc(-c2ccc(C)nc2)ncn1 (centres unmarked) [Compound 377]	≤ 300
Cc1ccc(-c2cc(NC[C@@H](C)c3cc(C)nc4c3OCCC4)ncn2)cn1 [Compound 487]	≤ 300
CNC(=O)c1ccnc2c([C@H](C)CNc3cc(-c4cnc(NC)nc4)ncn3)ccc(F)c12 [Compound 623]	≤ 300
CNC(=O)c1ccnc2c([C@H](C)CNc3cc(-c4ccc(N(C)C5CCS(=O)(=O)C5)nc4)ncn3)cccc12 (some centres unmarked) [Compound 711]	≤ 300
Cc1ccc(-c2cc(NC[C@@H](C)c3ccnc4cccnc34)ncn2)cn1 [Compound 495]	≤ 300
COc1cc(-c2cc(NC[C@@H](C)c3ccnc4c3OCC4)ncn2)cnc1OC [Compound 595]	≤ 300
CNC(=O)c1c(F)cnc2c([C@H](C)CNc3cc(-c4ccc(NC5CCN(C)CC5)nc4)ncn3)cccc12 [Compound 1063]	≤ 300
CNC(=O)c1ccc([C@H](C)CNc2cc(-c3ccc(NCC(F)F)nc3)ncn2)c(OC)c1 [Compound 390]	≤ 300
CCOC(=O)C(C)(C)n1ncc2cc(-c3cc(NCC(C)c4ccc(C(=O)NC)cc4OC)ncn3)cnc21 (centres unmarked) [Compound 276]	≤ 300
CC(CNc1cc(-c2ccc(N3CCN(C)CC3)nc2)ncn1)c1ccccc1OC1COC1 (centres unmarked) [Compound 102]	≤ 300

SMILES	Ki [nM]
CNC(=O)c1ccnc2c([C@H](C)CNc3cc(-c4ccc(C)s4)ncn3)cccc12 [Compound 839]	≤ 300
Cc1ncc(-c2cc(NCC(C)c3nccc4c3OCC4)ncn2)cn1 (centres unmarked) [Compound 374]	≤ 300
COc1sccc1C(C)CNc1cc(-c2cnc3c(cnn3C3CCN(C)CC3)c2)ncn1 (centres unmarked) [Compound 264]	≤ 300
COc1ccc(SC)cc1C(C)CNc1cc(-c2ccc(N3CCN(C(C)=O)CC3)nc2)ncn1 (centres unmarked) [Compound 65]	≤ 300
CNC(=O)c1ccc([C@H](C)CNc2cc(-c3cnc4c(cnn4C4CCN(C)CC4)c3)ncn2)c(OC)c1 [Compound 286]	≤ 300
CNC(=O)c1ccnc2c([C@H](C)CNc3cc(-c4cnc5c(c4)OCCO5)ncn3)cccc12 [Compound 935]	≤ 300
C[C@H](CNc1cc(-c2cncc(C(=O)NCC3CC3)c2)ncn1)c1ccnc2c1OCCO2 [Compound 551]	≤ 300
CNC(=O)c1ccc(C(C)CNc2ncnc(-c3ccc(F)nc3)n2)c(OC)c1 (centres unmarked) [Compound 410]	≤ 300
CCNc1ccc(-c2cc(NC[C@@H](C)c3ccc(F)c4c(C(=O)NC)ccnc34)ncn2)cn1 [Compound 922]	≤ 300
COc1ccccc1CCNc1cc(-c2ccc(-c3nnc(C)o3)cc2)ncn1 [Compound 22]	≤ 300
CNC(=O)c1ccc([C@H](C)CNc2cc(-c3ccc(N(C)C4CCN(C)CC4)nc3)ncn2)c(OC)c1 [Compound 347]	≤ 300
COc1cc(C(=O)NCC(F)F)ccc1C(C)CNc1cc(-c2ccc(C)nc2)ncn1 (centres unmarked) [Compound 296]	≤ 300
CCOc1ccc(-c2cc(NC[C@@H](C)c3cccc4c(C(=O)NC)c(F)cnc34)ncn2)cn1 [Compound 932]	≤ 300
CNC(=O)c1c(F)cnc2c([C@H](C)CNc3cc(-c4ccc(C(C)C)nc4)ncn3)cccc12 [Compound 858]	≤ 300
COc1cc(OC)c(C(C)CNc2cc(-c3ccc(C)nc3)ncn2)cc1C(N)=O (centres unmarked) [Compound 415]	≤ 300
CNC(=O)c1ccc([C@H](C)CNc2cc(-c3ccc4c(c3)NC(=O)C4)ncn2)c(OC)c1 [Compound 311]	≤ 300
COc1ccccc1CCNc1cc(-c2cnc3c(cnn3C3CCN(C)CC3)c2)ncn1 [Compound 82]	≤ 300
CNC(=O)c1ccnc2c([C@H](C)CNc3cc(-c4cnc(C(C)(C)O)nc4)ncn3)cccc12 [Compound 609]	≤ 300
CC(=O)Nc1cnc2c([C@H](C)CNc3cc(-c4ccc(C)nc4)ncn3)cccc2c1 [Compound 742]	≤ 300
CCc1ccc(-c2cc(NC[C@@H](C)c3cccc4c(C(=O)NC)ccnc34)ncn2)cn1 [Compound 789]	≤ 300
CNC(=O)c1ccnc2c([C@H](C)CNc3cc(-c4ccc5c(c4)CN(C(=O)COC)CC5)ncn3)cccc12 [Compound 834]	≤ 300
CNC(=O)c1ccnc2c([C@H](C)CNc3cc(-c4cncc(C#N)c4)ncn3)cccc12 [Compound 868]	≤ 300
CNCCNc1ccc(-c2cc(NC[C@@H](C)c3ccnc4c3OCCO4)ncn2)cn1 [Compound 499]	≤ 300

SMILES	Ki [nM]
CNC(=O)c1ccnc2c([C@H](C)CNc3cc(-c4ccc(NC5CC5)nc4)ncn3)ccc(F)c12 [Compound 943]	≤ 300
CNC(=O)c1ccc([C@H](C)CNc2cc(-c3ccc4c(c3)CC(=O)N4)ncn2)c(OC)c1 [Compound 310]	≤ 300
CNC(=O)c1ccnc2c([C@H](C)CNc3cc(-c4cnc(N5CCOCC5)c(C#N)c4)ncn3)cccc12 [Compound 946]	≤ 300
CNC(=O)c1c(F)cnc2c([C@H](C)CNc3cc(-c4ccc(N(C)C5CCN(CC(F)F)CC5)nc4)ncn3)cccc12 [Compound 1089]	≤ 300
COc1cc(SC)ccc1CCNc1cc(-c2ccc(N3CCN(C(C)=O)CC3)nc2)ncn1 [Compound 71]	≤ 300
COc1ncc(-c2cc(NC[C@@H](C)c3ccnc4c3OCCO4)ncn2)cc1C#N [Compound 528]	≤ 300
CNC(=O)c1ccnc2c([C@H](C)CNc3cc(-c4ccc(C)cc4F)ncn3)cccc12 [Compound 805]	≤ 300
CNC(=O)c1ccc([C@H](C)CNc2cc(-c3ccc(N4CCCC4=O)cc3)ncn2)c(OC)c1 [Compound 313]	≤ 300
Cc1ccc(-c2cc(NCC(C)c3cncc4c3OCCC4)ncn2)cn1 (centres unmarked) [Compound 451]	≤ 300
CNC(=O)c1ccnc2c([C@H](C)CNc3cc(-c4cnc(NC5CCN(C(C)=O)CC5)nc4)ncn3)ccc(F)c12 [Compound 1055]	≤ 300
COc1ccccc1[C@H](C)CNc1cc(-c2ccnc(-c3ccnc(F)c3)c2)ncn1 [Compound 105]	≤ 300
CNC(=O)c1c(F)cnc2c([C@H](C)CNc3cc(-c4cnc(OC)c(N)c4)ncn3)cccc12 [Compound 902]	≤ 300
CNC(=O)c1ccnc2c([C@H](C)CNc3cc(-c4cnc(NC)c(C)c4)ncn3)cccc12 [Compound 961]	≤ 300
CNC(=O)c1cc(OC)c(C(C)CNc2cc(-c3ccc(C)nc3)ncn2)cc1F (centres unmarked) [Compound 411]	≤ 300
CCCn1ccc2cc(-c3cc(NCCc4ccccc4OC)ncn3)cnc21 [Compound 36]	≤ 300
CNC(=O)c1ccc(C(C)CNc2cc(-c3cnc4c(ccn4C)c3)ncn2)c(OC)c1 (centres unmarked) [Compound 189]	≤ 300
CCOc1ccccc1CCNc1cc(-c2ccc(C)nc2)ncn1 [Compound 57]	≤ 300
CNC(=O)c1ncnc2c([C@H](C)CNc3cc(-c4ccc(C)nc4)ncn3)cccc12 [Compound 971, (S)—N-methyl-8-(1-((6-(6-methylpyridin-3-yl)pyrimidin-4-yl)amino)propan-2-yl)quinazoline-4-carboxamide]	≤ 300
COc1ccnc2c([C@H](C)CNc3cc(-c4ccc(C)nc4)ncn3)cccc12 [Compound 665]	≤ 300
CNC(=O)c1ccnc2c([C@H](C)CNc3cc(-c4cnc(C(F)(F)F)nc4)ncn3)cccc12 [Compound 957]	≤ 300
CNC(=O)c1ccnc2c([C@H](C)CNc3cc(-c4cnc(NC5CC5)nc4)ncn3)cccc12 [Compound 1029]	≤ 300

Same assay, conditions: 100 μM ATP; competitive tight-binding fit; listed as compound 539

SMILES	Ki [nM]
Cc1ccc(-c2cc(NC[C@@H](C)c3cccc4c3OC(CO)C4)ncn2)cn1 (single isomer, unassigned) [Compound 539]	≤ 300
